This is an account of results in PMC12613816, “Discovery of Novel Isoxazole-Based Small-Molecule Toll-Like Receptor 8 Antagonists” (Journal of Medicinal Chemistry, 2025).

Protein sequences, listed by entry. Tags and fused reporters are not part of them.
UniProt Q99836: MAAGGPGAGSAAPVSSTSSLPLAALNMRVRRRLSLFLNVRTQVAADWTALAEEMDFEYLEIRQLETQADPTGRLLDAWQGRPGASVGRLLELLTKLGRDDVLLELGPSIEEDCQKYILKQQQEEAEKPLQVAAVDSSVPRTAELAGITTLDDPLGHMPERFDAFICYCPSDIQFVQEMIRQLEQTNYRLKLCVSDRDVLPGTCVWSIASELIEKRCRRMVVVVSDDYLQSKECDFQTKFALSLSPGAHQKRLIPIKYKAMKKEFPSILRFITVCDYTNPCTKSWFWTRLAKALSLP

These are yes or no findings as the source states them, for the method shown. In cells and extracts the contact can be indirect. Some entries that bind do so weakly or less than the wild type.

The experiment deals with T1, Toll-like receptor 8 (human (endogenous in THP-1)) (UniProt Q9NR97).
T1 sequence: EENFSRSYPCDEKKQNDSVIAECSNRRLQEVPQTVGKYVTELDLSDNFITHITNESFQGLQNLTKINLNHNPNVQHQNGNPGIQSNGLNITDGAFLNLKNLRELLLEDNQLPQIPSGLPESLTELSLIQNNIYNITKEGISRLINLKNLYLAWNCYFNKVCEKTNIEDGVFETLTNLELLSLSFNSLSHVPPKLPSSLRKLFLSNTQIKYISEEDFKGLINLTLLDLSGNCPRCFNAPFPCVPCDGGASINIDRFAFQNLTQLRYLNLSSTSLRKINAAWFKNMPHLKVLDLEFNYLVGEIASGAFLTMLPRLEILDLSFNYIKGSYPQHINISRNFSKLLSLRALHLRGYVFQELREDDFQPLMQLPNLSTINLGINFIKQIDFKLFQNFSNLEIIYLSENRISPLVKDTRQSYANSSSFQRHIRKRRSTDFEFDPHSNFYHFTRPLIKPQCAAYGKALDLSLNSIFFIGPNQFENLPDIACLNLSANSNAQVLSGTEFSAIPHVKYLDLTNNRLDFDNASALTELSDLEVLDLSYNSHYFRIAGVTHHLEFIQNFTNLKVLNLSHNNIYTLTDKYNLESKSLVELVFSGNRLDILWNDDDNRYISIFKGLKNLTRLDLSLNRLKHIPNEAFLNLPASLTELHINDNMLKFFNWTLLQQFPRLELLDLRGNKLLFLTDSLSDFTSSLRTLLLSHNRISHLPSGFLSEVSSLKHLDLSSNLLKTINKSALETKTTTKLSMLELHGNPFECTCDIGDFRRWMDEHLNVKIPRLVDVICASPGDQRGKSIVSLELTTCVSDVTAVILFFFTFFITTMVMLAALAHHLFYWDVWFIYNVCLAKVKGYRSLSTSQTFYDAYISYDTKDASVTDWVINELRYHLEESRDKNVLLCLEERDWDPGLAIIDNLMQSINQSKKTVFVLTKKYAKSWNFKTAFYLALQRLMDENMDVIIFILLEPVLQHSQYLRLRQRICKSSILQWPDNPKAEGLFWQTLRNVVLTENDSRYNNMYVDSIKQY
Put plainly: co-IP; THP-1 macrophages incubated with or without compound 10 (10 uM, 1 h), then TL8-506 (0.6 uM, 30 min); RIPA lysates incubated with mouse anti-TLR8 mAb 2 h at 4 C, protein A/G PLUS agarose overnight at 4 C, 4 washes with RIPA; Western blot for hTLR8 and MyD88; mouse IgG2b isotype control. For orientation: In western blotting, separated proteins are transferred to a membrane and probed.

Take MyD88 (from UniProt Q99836 1-296): the binding entry was “binds”.
